Results taken from the supplement of paper PMC8728848.
This is one part of the list.

What was measured:
Experiment in all cases: glycan array binding signal (z-score within array); higher = stronger binding
Details in all cases: glycan notation: IUPAC condensed, linker removed
[1] = target: Fuc(a1-2)Gal(b1-4)GlcNAc(b1-3)Gal(b1-4)GlcNAc(b1-2)Man(a1-3)[Fuc(a1-2)Gal(b1-4)GlcNAc(b1-3)Gal(b1-4)GlcNAc(b1-2)Man(a1-6)]Man(b1-4)GlcNAc(b1-4)GlcNAc
Summary of the method: (§1)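 Negative Z-scores can be read as non-binding. The Z-score is calculated within each array and then averaged across arrays of one protein sequence at different concentrations or buffers and across linkers. Arrays, 3228 in all, were curated from the Consortium for Functional Glycomics database and kept only where the protein sequence was available.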

[2] = target: Fuc(a1-2)Gal(b1-4)GlcNAc(b1-3)Gal(b1-4)GlcNAc(b1-3)Gal(b1-4)GlcNAc
Summary of the method: as §1

[3] = target: Fuc(a1-2)Gal(b1-4)GlcNAc(b1-3)GalNAc
Summary of the method: as §1

[4] = target: Fuc(a1-2)Gal(b1-4)GlcNAc(b1-3)[Fuc(a1-2)Gal(b1-4)GlcNAc(b1-6)]GalNAc
Summary of the method: as §1

[5] = target: Fuc(a1-2)Gal(b1-4)GlcNAc(b1-3)[Fuc(a1-3)[Gal(b1-4)]GlcNAc(b1-6)]Gal(b1-4)Glc
Summary of the method: as §1

[6] = target: Fuc(a1-2)Gal(b1-4)GlcNAc(b1-6)GalNAc
Summary of the method: as §1

[7] = target: Fuc(a1-2)Gal(b1-4)GlcNAc6S
Summary of the method: as §1

[8] = target: Fuc(a1-2)Gal(b1-4)[Fuc(a1-3)]GlcNAc
Summary of the method: as §1

[9] = target: Fuc(a1-2)Gal(b1-4)[Fuc(a1-3)]GlcNAc(b1-2)Man(a1-3)[Fuc(a1-2)Gal(b1-4)[Fuc(a1-3)]GlcNAc(b1-2)Man(a1-6)]Man(b1-4)GlcNAc(b1-4)[Fuc(a1-6)]GlcNAc
Summary of the method: as §1

[10] = target: Fuc(a1-2)Gal(b1-4)[Fuc(a1-3)]GlcNAc(b1-2)[Fuc(a1-2)Gal(b1-4)[Fuc(a1-3)]GlcNAc(b1-4)]Man(a1-3)[Fuc(a1-2)Gal(b1-4)[Fuc(a1-3)]GlcNAc(b1-2)Man(a1-6)]Man(b1-4)GlcNAc(b1-4)GlcNAc
Summary of the method: as §1

[11] = target: Fuc(a1-2)Gal(b1-4)[Fuc(a1-3)]GlcNAc(b1-3)Gal(b1-4)[Fuc(a1-3)]GlcNAc
Summary of the method: as §1

[12] = target: Fuc(a1-2)Gal(b1-4)[Fuc(a1-3)]GlcNAc(b1-3)Gal(b1-4)[Fuc(a1-3)]GlcNAc(b1-3)Gal(b1-4)[Fuc(a1-3)]GlcNAc
Summary of the method: as §1

[13] = target: Fuc(a1-2)Gal(b1-4)[Fuc(a1-3)]GlcNAc(b1-3)GalNAc
Summary of the method: as §1

[14] = target: Fuc(a1-2)Gal(b1-4)[Fuc(a1-3)]GlcNAc(b1-3)[Neu5Ac(a2-6)Gal(b1-4)GlcNAc(b1-6)]Gal(b1-4)Glc
Summary of the method: as §1

[15] = target: Fuc(a1-2)Gal3S(b1-4)GlcNAc
Summary of the method: as §1

[16] = target: Fuc(a1-2)Gal6S(b1-3)GlcNAc
Summary of the method: as §1

[17] = target: Fuc(a1-2)Gal6S(b1-3)GlcNAc6S
Summary of the method: as §1

Fuc(a1-2)Gal6S(b1-4)Glc = target: Fuc(a1-2)Gal6S(b1-4)Glc
Summary of the method: as §1

[18] = target: Fuc(a1-2)Gal6S(b1-4)Glc6S
Summary of the method: as §1

Fuc(a1-2)[Gal(a1-3)]Gal = target: Fuc(a1-2)[Gal(a1-3)]Gal
Summary of the method: as §1

[19] = target: Fuc(a1-2)[Gal(a1-3)]Gal(b1-3)GalNAc
Summary of the method: as §1

[20] = target: Fuc(a1-2)[Gal(a1-3)]Gal(b1-3)GalNAc(b1-3)Gal(a1-4)Gal(b1-4)Glc
Summary of the method: as §1

[21] = target: Fuc(a1-2)[Gal(a1-3)]Gal(b1-3)GlcNAc
Summary of the method: as §1

[22] = target: Fuc(a1-2)[Gal(a1-3)]Gal(b1-3)GlcNAc(b1-2)Man(a1-3)[Fuc(a1-2)[Gal(a1-3)]Gal(b1-3)GlcNAc(b1-2)Man(a1-6)]Man(b1-4)GlcNAc(b1-4)GlcNAc
Summary of the method: as §1

[23] = target: Fuc(a1-2)[Gal(a1-3)]Gal(b1-3)GlcNAc(b1-2)Man(a1-3)[Fuc(a1-2)[Gal(a1-3)]Gal(b1-3)GlcNAc(b1-2)Man(a1-6)]Man(b1-4)GlcNAc(b1-4)[Fuc(a1-6)]GlcNAc
Summary of the method: as §1

[24] = target: Fuc(a1-2)[Gal(a1-3)]Gal(b1-3)GlcNAc(b1-3)GalNAc
Summary of the method: as §1

[25] = target: Fuc(a1-2)[Gal(a1-3)]Gal(b1-3)GlcNAc(b1-6)GalNAc
Summary of the method: as §1

[26] = target: Fuc(a1-2)[Gal(a1-3)]Gal(b1-4)Glc
Summary of the method: as §1

[27] = target: Fuc(a1-2)[Gal(a1-3)]Gal(b1-4)GlcNAc
Summary of the method: as §1

[28] = target: Fuc(a1-2)[Gal(a1-3)]Gal(b1-4)GlcNAc(b1-2)Man
Summary of the method: as §1

B1: B3GalT2 (Rattus norvegicus) (protein)
chain: LMLQWRRRHCCFAKMSWNAKRSLFRTHLMGVLSLVFLFAMFLFFNHHDWLPGRPGFKENPVTYTFRGFRSTKTETNQSSLRNIWKEVVPQTLRPQTATNSNNTELSPQGVTGLENTLSANGSIYNEKGTGHPNSYHFKYIINEPEKCQEKSPFLILLIAAEPGQIEARRAIRQTWGNETLAPGIQITRIFLLGISIKLNGYLQHAIQEESIQYHDIIQQEYLDTYYNLTIKTLMGMNWVATYCPHTPYVMKTDSDMFVNTEYLIHKLLKPDLPPRHNYFTGYLMRGYAPNRNKDSKWYMPPDLYPSERYPVFCSGTGYVFSGDLAEKIFKVSLGIRRLHLEDVYVGICLAKLRVDPVPPPNEFVFNHWRVSYSSCKYSHLITSHQFQPSELIKYWNHLQQNKHNACVNAAKEKAGRYRHRKLH
glycan array binding signal (z-score) [1]: -0.999 | glycan array binding signal (z-score) [2]: -0.684 | glycan array binding signal (z-score) [3]: 0.324 | glycan array binding signal (z-score) [4]: 1.35 | glycan array binding signal (z-score) [5]: -0.549 | glycan array binding signal (z-score) [6]: 1.19 | glycan array binding signal (z-score) [7]: 0.505 | glycan array binding signal (z-score) [8]: 0.535 | glycan array binding signal (z-score) [9]: -1.03 | glycan array binding signal (z-score) [10]: -0.914 | glycan array binding signal (z-score) [11]: 0.657 | glycan array binding signal (z-score) [12]: 0.395 | glycan array binding signal (z-score) [13]: -0.501 | glycan array binding signal (z-score) [14]: -0.837 | glycan array binding signal (z-score) [15]: 1.19 | glycan array binding signal (z-score) [16]: 0.207 | glycan array binding signal (z-score) [17]: 0.6 | glycan array binding signal (z-score) (Fuc(a1-2)Gal6S(b1-4)Glc): 0.342 | glycan array binding signal (z-score) [18]: 0.509 | glycan array binding signal (z-score) (Fuc(a1-2)[Gal(a1-3)]Gal): 0.249 | glycan array binding signal (z-score) [19]: 0.316 | glycan array binding signal (z-score) [20]: 0.853 | glycan array binding signal (z-score) [21]: -0.235 | glycan array binding signal (z-score) [22]: 0.088 | glycan array binding signal (z-score) [23]: 0.023 | glycan array binding signal (z-score) [24]: -0.52 | glycan array binding signal (z-score) [25]: 0.17 | glycan array binding signal (z-score) [26]: 0.403 | glycan array binding signal (z-score) [27]: -0.033 | glycan array binding signal (z-score) [28]: 1.47
